These are yes or no findings as the source states them, for the method shown. In cells and extracts the contact can be indirect. Binding can be weak; no strength is given.
Target: GFP-ZmLDAP1 (maize (Zea mays, inbred line B73)) (UniProt B8A1N1)
Assay: co-IP

**Q.** “ZmPUX10-6 × His (from UniProt A0A804LMB5)” was tested. Which binding did it give?
**A.** The binding was “binds”.
